These results are taken from publication PMC4227767, “Dye label interference with RNA modification reveals 5-fluorouridine as non-covalent inhibitor”.

For data set [1], the target named is T1, TruB (tmTruB), tRNA pseudouridine-55 synthase (Thermotoga maritima) (UniProt Q9WZW0).
T1 sequence (looked up, limits assumed): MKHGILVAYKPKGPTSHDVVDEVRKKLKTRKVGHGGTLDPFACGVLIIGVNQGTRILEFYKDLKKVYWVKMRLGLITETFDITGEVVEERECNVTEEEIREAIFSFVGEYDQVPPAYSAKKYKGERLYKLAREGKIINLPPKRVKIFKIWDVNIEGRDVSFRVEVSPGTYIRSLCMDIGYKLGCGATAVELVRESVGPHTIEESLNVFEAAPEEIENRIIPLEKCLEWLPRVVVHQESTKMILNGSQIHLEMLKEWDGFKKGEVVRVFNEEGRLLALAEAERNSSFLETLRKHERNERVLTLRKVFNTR
Put plainly: fluorescence titration (spectral shifts, lifetime/anisotropy). Particulars: average over three titration curves, 200 nM tRNA, text prints 'U55-tRNA', U33-U55 from context; 5-aminohexyl-3-acrylimido-uridine at U33; recombinant protein; label: Cy5 at U33 (internal); letters put together from the description.

The target in data set [2] is T1, TruB (tmTruB), tRNA pseudouridine-55 synthase (Thermotoga maritima). Put plainly: SDS-PAGE gel shift. The settings on record: no SDS-stable complex (complex specific for 5FU55), denaturing conditions, binds under native conditions; recombinant protein; letters put together from the description. (In general: In EMSA bound probe runs differently from free probe, usually more slowly.)

For at least one entry, the source does not settle the construct or the ends of the probe. For some assays here: Negatives hold for the conditions tested. Tags and fusion partners may be left off the protein sequences shown.

As usually defined, the Kd is the concentration at which binding is half-saturated. Turning to “GCGGAUUUAGCUCAGUUGGGAGAGCGCCAGACUGAAGAUCUGGAGGUCCUGUGUUCGAUCCACAGAAUUCGCACCA [U33-U55-tRNA (Cy5 at U33)]”, the Kd in data set [1] came to 30.7 nM.
“GCGGAUUUAGCUCAGUUGGGAGAGCGCCAGACUGAAGAUCUGGAGGUCCUGUGUUCGAUCCACAGAAUUCGCACCA [U55-tRNA (unlabeled transcript)]”: in data set [2], the binding result is listed as “no binding”.
